The series is described as follows: self-splicing fitness, log relative to wild type (ln ratio); higher = more splicing; Tetrahymena group I intron in knt gene, E. coli kanamycin selection, DiMSum; sequences stand for … in CUCUCU…GGAGGGAAAAGUUAUCAGGCAUGCACCUGGUAGCUAGUCUUUAAACCAAUAGAUUGCAUCGGUUUAAAAGGCAAGACCGUCAAAUUGCGGGAAAGGGGUCAACAGCCGUUCAGUACCAAGUCUCAGGGGAAACUUUGAGAUGGCCUUGCAAAGGGUAUGGUAAUAAGCUGACGGACAUGGUCCUAACCACGCAGCCAAGUCCUAAGUCAACAGAUCUUCUGUUGAUAUGGAUGCAGUUCACAGACUAAAUGUCGGUCGGGGAAGAUGUAUUCUUCUCAUAAGAUAUAGUCGGACCUCUCCUUAAUGGGAGCUAGCGGAUGAAGUGAUGCAACACUGGAGCCGCUGGGAACUAAUUUGUAUGCGAAAGUAUAUUGAUUAGUUUUGGAGUACUCGUGGUCG
Put shortly: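 The eight P1ex-region nucleotides of an intron in the knt kanamycin-resistance gene on pET-22b(+) were all randomised and the library put into E. coli BL21(DE3). Six replicate transformations were grown overnight at 37°C or 30°C on LB agar with or without 25 μg/mL kanamycin, together with 100 μg/mL carbenicillin, 50 μM IPTG and 0.2% rhamnose. Colonies were pooled and amplicon-sequenced on an Illumina HiSeq 2500. Fitness from DiMSum is the error-weighted combination of wild-type-normalised replicate fold changes, kanamycin over none.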

± gives the uncertainty stated by the source. Many entries were measured with a wide error.

CGGGAGCAAUAUUACGUACU: the “self-splicing fitness (ln)” value (30 °C) was -4.62 ± 1.

For the sequence CGUGAGCAAUAUUACGACCA, the “self-splicing fitness (ln)” value (30 °C) was -2.42 ± 0.58.

With GGUGAGCAAUAUUACGUCAC, the “self-splicing fitness (ln)” value (37 °C) was -1.37 ± 1.2.

On to AGUAAGCAAUAUUACGCCCA, for which the “self-splicing fitness (ln)” value reads like this: (30 °C) -1.19 ± 0.37; (37 °C) -1.38 ± 0.5.

As for CUGUAGCAAUAUUACGCUCC, the “self-splicing fitness (ln)” value (37 °C) is -1.39 ± 1.2.

As to GGUGAGCAAUAUUACGCCCA, the “self-splicing fitness (ln)” value (30 °C) is -0.226 ± 1.2 and the “self-splicing fitness (ln)” value (37 °C) was -1.88 ± 1.2.

As to CUCUAGCAAUAUUACGCCUU, where the note is “37 °C”, the “self-splicing fitness (ln)” value is -3.56 ± 0.51.

For the sequence GUUUAGCAAUAUUACGUGGC, the “self-splicing fitness (ln)” value (30 °C) was -0.884 ± 0.32 and the “self-splicing fitness (ln)” value (37 °C) is -1.46 ± 0.33.

Turning to AGAGAGCAAUAUUACGGCGC, the “self-splicing fitness (ln)” value (30 °C) is -2.65 ± 1.1.

Regarding GGAUAGCAAUAUUACGCGUC, where the note is “37 °C”, the “self-splicing fitness (ln)” value was -2.71 ± 0.76.

UGCAAGCAAUAUUACGAAGU: the “self-splicing fitness (ln)” value (37 °C) was -2.8 ± 0.61.

As for AUCCAGCAAUAUUACGCGGU, the “self-splicing fitness (ln)” value (30 °C) is -2.02 ± 0.71.

On to CUGGAGCAAUAUUACGCGCA, for which the “self-splicing fitness (ln)” value runs as follows: (30 °C) -3.83 ± 1; (37 °C) -2.29 ± 0.63.

Turning to UCACAGCAAUAUUACGCCGA, the “self-splicing fitness (ln)” value by setting is: (30 °C) -0.333 ± 0.1; (37 °C) 0.184 ± 0.14.

For CGCGAGCAAUAUUACGCCCA, the “self-splicing fitness (ln)” value (37 °C) is -1.37 ± 1.2.

UGGAAGCAAUAUUACGAGAC: for the setting “37 °C”, the “self-splicing fitness (ln)” value was -2.9 ± 1.1.

Consider CGCCAGCAAUAUUACGGGGG, for which the “self-splicing fitness (ln)” value runs as follows: (30 °C) -3 ± 0.16; (37 °C) -2.17 ± 0.2.

Consider CAACAGCAAUAUUACGAAGU, for which the “self-splicing fitness (ln)” value (30 °C) was -5.26 ± 0.71.

Regarding UCGGAGCAAUAUUACGAAAA, the “self-splicing fitness (ln)” value (30 °C) was -2.27 ± 0.72 and the “self-splicing fitness (ln)” value (37 °C) was -2.23 ± 0.8.

For the sequence CCGGAGCAAUAUUACGAUAC, the “self-splicing fitness (ln)” value (30 °C) is -3.54 ± 0.6.

On to CUAUAGCAAUAUUACGUCGC, for which the “self-splicing fitness (ln)” value (37 °C) was -3.56 ± 0.52.

On to AGAUAGCAAUAUUACGACGA, for which the “self-splicing fitness (ln)” value was -0.422 ± 0.095 (30 °C) and -0.749 ± 0.085 (37 °C).

Turning to GCAUAGCAAUAUUACGCAUG, the “self-splicing fitness (ln)” value runs as follows: (30 °C) -3.79 ± 0.23; (37 °C) -2.12 ± 0.19.

Regarding UGGGAGCAAUAUUACGUCGC, where the note is “37 °C”, the “self-splicing fitness (ln)” value was -1.02 ± 0.67.

As for GCAGAGCAAUAUUACGGAUU, the “self-splicing fitness (ln)” value (37 °C) was -3.15 ± 0.73.

For CUGAAGCAAUAUUACGUCUC, for the setting “30 °C”, the “self-splicing fitness (ln)” value was -4.97 ± 0.58.

Regarding GGCUAGCAAUAUUACGAAAU, the “self-splicing fitness (ln)” value is -1.67 ± 0.22 (30 °C) and 0.0518 ± 0.2 (37 °C).

As to AAUGAGCAAUAUUACGCAUA, the “self-splicing fitness (ln)” value by setting is: (30 °C) -2.52 ± 0.19; (37 °C) -2.42 ± 0.24.

Turning to GCACAGCAAUAUUACGGGCC, the “self-splicing fitness (ln)” value (30 °C) is -4.88 ± 0.58.

Regarding AGAGAGCAAUAUUACGAGGC, where the note is “37 °C”, the “self-splicing fitness (ln)” value is -2.32 ± 0.78.

As to GCGGAGCAAUAUUACGGUAG, the “self-splicing fitness (ln)” value (37 °C) is -3.32 ± 0.6.

Turning to CCAGAGCAAUAUUACGCUGU, the “self-splicing fitness (ln)” value (37 °C) was -3.91 ± 0.51.

As to UGAGAGCAAUAUUACGUGAC, the “self-splicing fitness (ln)” value (30 °C) was -3.28 ± 0.6 and the “self-splicing fitness (ln)” value (37 °C) was -2.24 ± 0.66.

Take GCUCAGCAAUAUUACGGUAA: the “self-splicing fitness (ln)” value is -1.52 ± 0.13 (30 °C) and -0.551 ± 0.11 (37 °C).

Regarding CAUAAGCAAUAUUACGAUCA, the “self-splicing fitness (ln)” value runs as follows: (30 °C) -2.28 ± 0.21; (37 °C) -1.87 ± 0.2.

In the case of CCGGAGCAAUAUUACGUUCC, the “self-splicing fitness (ln)” value (37 °C) is -0.234 ± 1.4.

As for CCGUAGCAAUAUUACGCUAU, the “self-splicing fitness (ln)” value was -4.08 ± 1 (30 °C) and -3.33 ± 1 (37 °C).

In the case of UUUAAGCAAUAUUACGAUGC, the “self-splicing fitness (ln)” value (37 °C) is -1.04 ± 0.59.

As for GUGUAGCAAUAUUACGAAUG, under “30 °C”, the “self-splicing fitness (ln)” value was -2.91 ± 1.1.

Regarding GUGUAGCAAUAUUACGAACC, the “self-splicing fitness (ln)” value (30 °C) is -2.19 ± 0.65 and the “self-splicing fitness (ln)” value (37 °C) is -1.29 ± 0.69.

In the case of CGUUAGCAAUAUUACGGGAC, the “self-splicing fitness (ln)” value runs as follows: (30 °C) -2.68 ± 0.34; (37 °C) -3.7 ± 0.39.

Turning to UUGUAGCAAUAUUACGCGCU, the “self-splicing fitness (ln)” value was -2.05 ± 0.16 (30 °C) and -0.976 ± 0.11 (37 °C).

For the sequence AUUCAGCAAUAUUACGCCAC, the “self-splicing fitness (ln)” value (30 °C) was -3.88 ± 0.52.

For ACAGAGCAAUAUUACGAGCC, the “self-splicing fitness (ln)” value (30 °C) is -3.51 ± 1.

For UGGGAGCAAUAUUACGCCGU, the “self-splicing fitness (ln)” value was -4.93 ± 1 (30 °C) and -2.22 ± 0.64 (37 °C).

These data come from the supplement of paper PMC7877785.
